In article PMC9741591:
Construct, isoform or probe ends are uncertain for at least one entry. For part of these data: A weaker result is weaker than the reference pair of the same experiment. At least one verdict was read from the data and is not stated in words by the source.

What was measured:
[1] = tested on: MBP-GmRR11d (Glycine max); assay: EMSA / DNA pull-down; conditions: EMSA: LightShift Chemiluminescent EMSA Kit (Pierce), 5' biotin probe, 200-fold unlabeled competitor; recombinant protein; protein details: MBP (N-term, pMAL-c2X); label: 5' biotin
[2] = molecular target: GST-GmNSP1a (UniProt A0A2P0P9P4); assay: EMSA; conditions: EMSA: LightShift Chemiluminescent EMSA Kit (Pierce), 5' biotin probe, 200-fold unlabeled competitor, recombinant protein, residues 1-543, protein details: GST (N-term, pGEX-4T-1), label: 5' biotin

TTCAAAAAATCTGTAGGATTGCCACGTGGAACATG (double strand) [GmRR11d probe 2 (GmNIN1a promoter)]
binding result [1]: binds

TATAATTACAATTTTTCAAAAGCTATAATTTTAAAATAAC (double strand) [GmNSP1a probe 1 (GmNIN1a promoter)]
binding result [2]: binds | binding result ([2]; plus GmRR11d): binds more weakly

GTGTTAGTTTTTTAAATTTGATTTGAACTTTTTA (double strand) [GmNSP1a probe 2 (GmNIN1a promoter)]
binding result [2]: binds | binding result ([2]; plus GmRR11d): binds more weakly

CGTGGTATCAACTTGGGATTAGGATGACAGAGTGC (double strand) [GmRR11d probe 1 (GmNIN1a promoter)]
binding result [1]: binds
